Reference: doi:10.1101/2021.10.14.464379
Results are given in words; binding and its absence hold for the method and conditions named.

Molecular target: Arabidopsis thaliana BAM1 (Arabidopsis thaliana) (UniProt Q9LIR6)
Experiment: SEC-SAXS

B1: Arabidopsis thaliana BAM1 (enzyme, UniProt Q9LIR6 42-575)
chain: AMNRNYKAHGTDPSPPMSPILGATRADLSVACKAFAVENGIGTIEEQRTYREGGIGGKKEGGGGVPVFVMMPLDSVTMGNTVNRRKAMKASLQALKSAGVEGIMIDVWWGLVEKESPGTYNWGGYNELLELAKKLGLKVQAVMSFHQCGGNVGDSVTIPLPQWVVEEVDKDPDLAYTDQWGRRNHEYISLGADTLPVLKGRTPVQCYADFMRAFRDNFKHLLGETIVEIQVGMGPAGELRYPSYPEQEGTWKFPGIGAFQCYDKYSLSSLKAAAETYGKPEWGSTGPTDAGHYNNWPEDTQFFKKEGGGWNSEYGDFFLSWYSQMLLDHGERILSSAKSIFENMGVKISVKIAGIHWHYGTRSHAPELTAGYYNTRFRDGYLPIAQMLARHNAIFNFTCIEMRDHEQPQDALCAPEKLVNQVALATLAAEVPLAGENALPRYDDYAHEQILKASALNLDQNNEGEPREMCAFTYLRMNPELFQADNWGKFVAFVKKMGEGRDSHRCREEVEREAEHFVHVTQPLVQEAAVALTH
In the case of B1, the binding is reported as “no binding”.
